In PubChem BioAssay AID488837 (National Center for Advancing Translational Sciences (NCATS), 2010):
In all, about 330,000 compounds went through this assay and about 20 (0.006%) were called active. The inconclusive results got no clear call from the source; some entries with a clear call stand among them for comparison. The call rests on the fitted dose curve; in most records, active means well fitted inhibition curve with a large enough effect; inconclusive means small, poorly fitted or top-dose-only effect, or effect the other way; inactive means flat fitted curve, though single readings scatter. Potencies of inconclusive entries are doubtful fits and often do not repeat.

Sequences of proteins named here, by UniProt entry; tags and fusion partners are left off. A change or cut given only in a name is not applied to a line headed by its entry.
UniProt O00167: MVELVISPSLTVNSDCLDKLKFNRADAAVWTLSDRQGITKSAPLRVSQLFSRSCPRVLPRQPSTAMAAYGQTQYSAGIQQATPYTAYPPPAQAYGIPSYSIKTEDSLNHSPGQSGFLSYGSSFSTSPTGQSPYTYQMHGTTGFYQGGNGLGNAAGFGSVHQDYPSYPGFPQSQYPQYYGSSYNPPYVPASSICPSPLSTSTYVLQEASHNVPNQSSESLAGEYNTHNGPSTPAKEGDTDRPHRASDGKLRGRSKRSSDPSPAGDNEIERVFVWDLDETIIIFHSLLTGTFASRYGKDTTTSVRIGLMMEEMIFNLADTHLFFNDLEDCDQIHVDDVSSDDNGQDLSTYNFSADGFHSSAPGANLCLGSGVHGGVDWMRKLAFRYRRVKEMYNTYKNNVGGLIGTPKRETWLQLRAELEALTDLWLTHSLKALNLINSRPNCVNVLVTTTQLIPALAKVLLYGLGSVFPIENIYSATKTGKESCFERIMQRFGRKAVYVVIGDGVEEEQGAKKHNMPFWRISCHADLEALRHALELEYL

Target: Protein phosphatase EYA2 (Homo sapiens) (UniProt O00167)
Test: qHTS Assay for Inhibitors of the Phosphatase Activity of Eya2
Conditions: recombinant Eya2, OMFP fluorescence dephosphorylation (OMFP is methylfluorescein phosphate); activity, negative = inhibition: at 76.9 µM (top of the series) unless noted
Excerpt: The Eya family of proteins are essential co-activators of the Six1 transcription factor. Six1 is a developmental gene that is abnormally re-expressed in a large percentage of breast cancers. This over-expression plays a causal role in the initiation and metastatic development of breast cancers. The Eya family of proteins was also found to contain a unique HAD phosphatase domain with protein tyrosine phosphatase activity which can potentially play a role in Six1-mediated breast tumorigenesis. […] We have developed and optimized a 1536 well fluorescence-based HTS assay targeting the phosphatase activity of Eya2. Inhibitors found against Eya2 could serve as potential therapeutic tools to inhibit Six1-mediated breast tumorigenesis and to increase the efficiency of radiation and certain chemo therapy. These inhibitors could also be used as chemical probes to study the function of Eya2's phosphatase activity and its role in Six1-mediated breast tumorigenesis.
The Eya2 enzyme was kindly provided by the laboratory of Dr. Rui Zhao. The 3-O-methyl-fluorescein phosphate (OMFP) substrate and all buffer reagents were purchased from Sigma Aldrich. qHTS Assay Setup: 1. Buffer- 50 mM HEPES pH 7.5, 50 mM NaCl, 5 uM MgCl2, 0.05% BSA, 1 mM DTT. 2. OMFP Stock- 10 mM solution prepared in 100% DMSO and stored in single use aliquots at -20C. Assay Procedure- 1. Dispense 1.5 ul per well of Eya2 at 0.2 uM in black medium binding 1536 well Greiner plate 2. Transfer 23 nl of compound and control compound (EGTA) to plate 3. Incubate at ambient for 10 minutes 4. Dispense 1.5 ul per well of OMFP at 50 uM 5. Incubate at ambient for 10 minutes 6. Read on ViewLux using Excitation = 485 nm, Emission = 525 nm
On the % scale 0 is the no-effect control and ±100 the full control effect; potency means the concentration at half of the fitted maximal effect.

Structure (SMILES) | activity, negative = inhibition | Potency
O=C1CCCC2=C1C(c1ccco1)Nc1ccc3ccccc3c12 (configuration not stated) | inactive: -10.7% | 
CC1(C)Cc2ccccc2C(NNC(=O)c2cccnc2)=N1 | inactive: -2.48% | 
COc1ccc(OC)c(NC(=O)CSc2nc3scc(C)c3c(=O)[nH]2)c1 |  | inconclusive: 251 µM [inhibitor, partial curve, poor fit]
CCOc1cc(/C=C2\CCCc3c2nc2ccccc2c3C(=O)O)ccc1OC |  | inconclusive: 39.8 µM [activator, partial curve]
CCCc1cc(=O)[nH]c(SCC(=O)Nc2c(C)cccc2C)n1 | inconclusive: 48.5% [activator] | 
Cc1ccc(-c2csc(/C=C3\SC(C)C(=O)N3CC(=O)Nc3ccccc3F)n2)cc1 (configuration not stated) |  | inconclusive: 22.4 µM [inhibitor, single point]
O=C(CSc1nnc(-c2cccc(S(=O)(=O)N3CCOCC3)c2)n1C1CCCCCC1)NCc1ccccc1 |  | inconclusive: 31.6 µM [inhibitor, partial curve]
CCc1ccc(N(CC(=O)NCC2CCCO2)C(=O)CCC(=O)Nc2nccs2)cc1 (configuration not stated) |  | inconclusive: 14.1 µM [inhibitor, single point]
CCOc1ccc(CNC(=O)C2CC(=O)N(C3CCCC3)C2)cc1OC (configuration not stated) |  | inconclusive: 20 µM [inhibitor, single point]
COC(=O)C1=C(C)N(Cc2ccccc2)C(=NCc2cccc(Cl)c2)N[C@H]1c1ccccc1 |  | inconclusive: 31.6 µM [inhibitor, partial curve, poor fit]
CCc1ccc(N(CC)C(=O)Cc2c(C(=O)O)n(C)c3ccccc23)cc1 |  | inconclusive: 25.1 µM [inhibitor, single point]
c1ccc(-c2cc3c(N4CCOCC4)ncnc3s2)cc1 | inactive: -15.5% | 
O=C(C[C@H]1C/C=C/CC[C@H](Cc2ccc(F)cc2)C(=O)O[C@H](c2ccccc2)CNC1=O)NCCO |  | inconclusive: 7.94 µM [inhibitor, partial curve]
Fc1ccc(-c2nnc(CN3CCN(c4ncc(C(F)(F)F)cc4Cl)CC3)o2)cc1 |  | inconclusive: 70.8 µM [inhibitor, single point]
CC(=O)N1CCN(S(=O)(=O)c2cccc(C(=O)OCN3C(=O)c4ccccc4C3=O)c2)CC1 |  | inconclusive: 11.2 µM [inhibitor, single point]
COc1ccc2c(c1)C1C=CCC1C(c1cc3c(cc1Br)OCO3)N2 (configuration not stated) |  | inconclusive: 28.2 µM [inhibitor, single point]
Cc1ccccc1NC(=O)Nc1ccc2c(c1)CCC2 | inactive: -0.823% | 
COc1cc(/C=N/N(C)c2ccccc2)cc(Cl)c1O | inactive: -12.8% | 
CC1=CC2=NC(=O)/C(=C/c3coc4ccc(Cl)cc4c3=O)C(=N)N2O1 |  | inconclusive: 126 µM [activator, partial curve]
Cc1cnc(C(=O)OCc2ccc(Br)cc2F)cn1 |  | inconclusive: 89.1 µM [inhibitor, single point]
Cc1cc(C(=O)N/N=C/c2c(C)nn(-c3ccccc3)c2Cl)n[nH]1 |  | inconclusive: 17.8 µM [inhibitor, single point]
O=C(CSc1ccc(Br)c2cccc(Cl)c12)Nc1ccc(S(=O)(=O)Nc2nccs2)cc1 |  | inconclusive: 22.4 µM [inhibitor, single point]
COc1ccccc1-n1cnc2cc(C(=O)NCCCN3CCOCC3)ccc21 |  | inconclusive: 28.2 µM [inhibitor, partial curve, poor fit]

Structure (SMILES) | activity, negative = inhibition | Potency
CSc1ccc(S(=O)(=O)NCC(=O)OCC(=O)N(Cc2ccccc2)C(C)C)cc1[N+](=O)[O-] | inactive: 2.96% | 
O=C(N/N=C/c1ccccc1O)C1CC(=O)N(c2ccc(F)cc2)C1 (configuration not stated) | inconclusive: -31.9% [inhibitor] | 
COC(=O)N/N=C/c1cn(CCOc2ccccc2OC)c2ccccc12 |  | inconclusive: 31.6 µM [inhibitor, single point]
COc1ccc(CC(=O)N/N=C/C=C/c2ccc3c(c2)OCO3)cc1OC |  | inconclusive: 70.8 µM [inhibitor, partial curve, poor fit]
CCC(NC(=O)c1ccc2nc(Cc3ccc(OC)cc3)oc2c1)c1ccncc1 (configuration not stated) | inactive: -20.5% | 
COc1cc2cc(-c3ccc(O)cc3O)nc(C)c2cc1OC | inactive: -5.92% | 
O=C(CCS(=O)(=O)Cc1ccccc1F)NCCCN1CCCCC1 |  | inconclusive: 89.1 µM [inhibitor, single point]
CCN(CC)c1ccc2c(-c3ccc(S(=O)(=O)O)cc3S(=O)(=O)[O-])c3ccc(=[N+](CC)CC)cc-3oc2c1 |  | inconclusive: 31.6 µM [activator, partial curve]
Brc1ccc(C2=CC(c3ccco3)n3ncnc3N2)cc1 (configuration not stated) |  | inconclusive: 100 µM [activator, partial curve]
O=C(Nc1ccccc1C(=O)O)C1=NN=CC1 |  | inconclusive: 398 µM [inhibitor, single point]
COc1ccc(S(=O)(=O)N(CC(=O)NCC2CCCO2)c2ccc(F)cc2)cc1OC (configuration not stated) | inactive: 4.01% | 
CSCC[C@H](NC(=O)[C@@H]1Cc2c([nH]c3ccccc23)C2c3ccccc3C(=O)N21)C(=O)NCC1CCCO1 (some centres not stated) |  | inconclusive: 891 µM [inhibitor, single point]
Cc1cc(=O)cc(C)n1-c1ccc(Br)cc1 | inactive: 9.63% | 
O=C(COc1ccccc1)Nc1cccc2c1CCCC2 |  | inconclusive: 44.7 µM [inhibitor, partial curve]
CN(C)CCCN(Cc1ccccc1)C(=S)Nc1ccc(OC(F)F)cc1 | inactive: -0.442% | 
CCC(OC(=O)c1nsc(Cl)c1Cl)C(=O)NCCOC (configuration not stated) |  | inconclusive: 17.8 µM [inhibitor, single point]
COc1cc(OC)cc(C(=O)NC2CC(C)(C)NC(C)(C)C2)c1 |  | inconclusive: 178 µM [inhibitor, partial curve]
COc1ccc(CCNC(=O)C2CC(=O)N(CCc3ccccc3)C2)cc1OC (configuration not stated) |  | inconclusive: 28.2 µM [inhibitor, single point]
CC1CC2=C(NC(=S)NC2c2ccc(F)cc2)/C(=C/c2ccc(F)cc2)C1 (configuration not stated) |  | inconclusive: 25.1 µM [inhibitor, partial curve]
CC(C)CCN(C(=O)Cc1ccc(Cl)c(Cl)c1)c1c(N)n(Cc2ccccc2)c(=O)[nH]c1=O |  | inconclusive: 100 µM [inhibitor, single point]
COc1cc(NC(=O)c2c3c(nc4ccccc24)CCC3)cc(OC)c1 |  | inconclusive: 20 µM [inhibitor, single point]
O=C(CCS(=O)(=O)c1ccccc1F)Nc1ccc(N2CCN(Cc3ccccc3)CC2)cc1 |  | inconclusive: 100 µM [inhibitor, single point]
CCn1c(COc2ccccc2)nnc1SCC(=O)Nc1cc(OC)ccc1OC |  | inconclusive: 158 µM [inhibitor, single point]

Structure (SMILES) | activity, negative = inhibition | Potency
CC(C)c1ccc(/C=N/NC(=O)c2ccccn2)cc1 |  | inconclusive: 56.2 µM [inhibitor, single point]
Cc1nc(NCCO)c(C#N)c2c1COC(C)(C)C2 | inactive: -24.9% | 
Cc1ccc(Nc2ccccc2N)cc1 |  | inconclusive: 282 µM [inhibitor, single point]
COc1ccc(-c2nc(SCC(=O)N(CC(C)C)c3c(N)n(Cc4ccccc4)c(=O)[nH]c3=O)n[nH]2)cc1 | inactive: 8.22% | 
COc1ccc([C@H]2CC(=O)C=C(c3cc(Br)ccc3OC)C2)cc1 | inactive: -2.79% | 
Cc1ccc(NC2=C(Cl)C(=O)c3ccccc3C2=O)cc1 | inactive: -1.8% | 
CC1CCN(S(=O)(=O)c2ccc(NC(=O)CNC3CCCCC3)cc2)CC1 |  | inconclusive: 25.1 µM [inhibitor, single point]
Cc1cc(=O)n2c3ccccc3n(CC(O)CN3CCN(Cc4ccccc4)CC3)c2c1C#N (configuration not stated) | inactive: 7.45% | 
CCOC(=O)c1c(S(=O)(=O)NCc2ccc(OC)cc2)c(C)n(C)c1C |  | inconclusive: 20 µM [inhibitor, single point]
CCCCc1ccc(NC(=O)N[C@@H](CC(C)C)C(=O)O)cc1 |  | inconclusive: 79.4 µM [inhibitor, single point]
CN(c1ccc(C(=O)Nc2ccc(Cl)cn2)cc1)S(=O)(=O)c1ccccc1 | inactive: 0.208% | 
COc1cccc(CN2CCN(Cc3ccccc3C(F)(F)F)CC2)c1 |  | inconclusive: 31.6 µM [inhibitor, partial curve, poor fit]
C/C(=N\Nc1cccc(C(=O)O)c1)c1ccc(Cl)s1 | inactive: -4.46% | 
CC(C)(c1ccccc1)c1ccc(OCC(O)CNC2CCN(Cc3ccccc3)CC2)cc1 (configuration not stated) |  | inconclusive: 100 µM [inhibitor, single point]
COC(=O)c1ccc(OCCOc2ccccc2C)cc1 |  | inconclusive: 79.4 µM [inhibitor, single point]
Cc1noc(/C=C/c2ccco2)c1S(=O)(=O)N1CCC(C(=O)N(C)Cc2ccccc2)CC1 | inactive: 0.988% | 
COc1ccc(S(=O)(=O)N2CCN(c3ccccc3OC)CC2)cc1 |  | inconclusive: 22.4 µM [inhibitor, single point]
Cc1ccc(C(=O)COc2ccc3ccc(=O)oc3c2)cc1 |  | inconclusive: 100 µM [inhibitor, single point]
CC(=O)O[C@H]1[C@H](O)[C@H](Oc2c(O)c(C)c3c4c2[C@@H](C)CC[C@@H]4[C@@H](C)C[C@H]3C=C(C)C)O[C@@H](C)[C@H]1O |  | inconclusive: 100 µM [inhibitor, partial curve]
CCOc1ccc(N(Cc2ccccc2F)C2=NC3CS(=O)(=O)CC3S2)cc1 (configuration not stated) |  | inconclusive: 25.1 µM [inhibitor, single point]
O=C(O)c1ccccc1C(=O)NNc1ccc(F)cc1 |  | inconclusive: 22.4 µM [inhibitor, single point]

In a second layout: entries from further up

| Structure (SMILES) | activity, negative = inhibition | Potency |
| --- | --- | --- |
| CC(C)c1ccc(/C=N/NC(=O)c2ccccn2)cc1 |  | inconclusive: 56.2 µM [inhibitor, single point] |
| Cc1nc(NCCO)c(C#N)c2c1COC(C)(C)C2 | inactive: -24.9% |  |
| Cc1ccc(Nc2ccccc2N)cc1 |  | inconclusive: 282 µM [inhibitor, single point] |
| COc1ccc(-c2nc(SCC(=O)N(CC(C)C)c3c(N)n(Cc4ccccc4)c(=O)[nH]c3=O)n[nH]2)cc1 | inactive: 8.22% |  |
| COc1ccc([C@H]2CC(=O)C=C(c3cc(Br)ccc3OC)C2)cc1 | inactive: -2.79% |  |
| Cc1cc(=O)n2c3ccccc3n(CC(O)CN3CCN(Cc4ccccc4)CC3)c2c1C#N (configuration not stated) | inactive: 7.45% |  |
| CCOC(=O)c1c(S(=O)(=O)NCc2ccc(OC)cc2)c(C)n(C)c1C |  | inconclusive: 20 µM [inhibitor, single point] |
| CN(c1ccc(C(=O)Nc2ccc(Cl)cn2)cc1)S(=O)(=O)c1ccccc1 | inactive: 0.208% |  |
| COc1cccc(CN2CCN(Cc3ccccc3C(F)(F)F)CC2)c1 |  | inconclusive: 31.6 µM [inhibitor, partial curve, poor fit] |
| C/C(=N\Nc1cccc(C(=O)O)c1)c1ccc(Cl)s1 | inactive: -4.46% |  |
| COC(=O)c1ccc(OCCOc2ccccc2C)cc1 |  | inconclusive: 79.4 µM [inhibitor, single point] |
| COc1ccc(S(=O)(=O)N2CCN(c3ccccc3OC)CC2)cc1 |  | inconclusive: 22.4 µM [inhibitor, single point] |
| Cc1ccc(C(=O)COc2ccc3ccc(=O)oc3c2)cc1 |  | inconclusive: 100 µM [inhibitor, single point] |
| CC(=O)O[C@H]1[C@H](O)[C@H](Oc2c(O)c(C)c3c4c2[C@@H](C)CC[C@@H]4[C@@H](C)C[C@H]3C=C(C)C)O[C@@H](C)[C@H]1O |  | inconclusive: 100 µM [inhibitor, partial curve] |
| O=C(O)c1ccccc1C(=O)NNc1ccc(F)cc1 |  | inconclusive: 22.4 µM [inhibitor, single point] |
